Data on 65 compounds can be found in PubChem BioAssay AID493014 (National Center for Advancing Translational Sciences (NCATS), 2011).

As usually defined, the AC50 is the concentration giving half of the maximal activity seen.

This is one part of the list. The main result of the screen is listed elsewhere. These columns were measured beside it and carry no call. The list favours compounds with an active or inconclusive main result. The note in brackets gives the kind of curve behind each potency; many fits are weak.

A short description of the assay: qHTS Assay to Find Inhibitors of Chronic Active B-Cell Receptor Signaling. Conditions: ABC-DLBCL IkBa-CBG/CBR reporter, luminescence ratio (green luciferase fused to IkBa over red control in TMD8 lymphoma cells), 4 h. Put shortly:
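TMD8 human ABC-DLBCL cells with doxycycline-inducible IκBα–green luciferase fusion and unfused red luciferase, in 0.5% FBS medium; compounds up to 46 uM, 4 h at 37C. Green/red luminescence ratio, filter-overlap corrected, fitted to concentration-response curves.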
A general note: qHTS replaces the single test concentration by a dilution series.

Setting [1] is: measured here: CBR red luminescence, cell number.
The mark [2] stands for this setting: measured here: IkBa-CBG green luminescence.

In the case of `O=C(COC(=O)c1cc(S(=O)(=O)N2CCOCC2)ccc1F)NC1CC1`, under setting [1], the AC50 was 0.259 µM [falling, partial curve, poor fit].
The same measure, in the same setting: the result for `COc1cc(OC)c(C(=O)Nc2ccc3ccccc3c2)cc1OC` reads 1.78 µM [rising, full curve]; that for `CN(CC(=O)Nc1ccc(Cl)cc1)c1ccc(S(=O)(=O)N2CCCCC2)cc1[N+](=O)[O-]`, 9.2 µM [falling, partial curve, poor fit]; that for `O=C1CN(Cc2ccccc2)C(=NCc2ccco2)S1`, 14.6 µM [rising, partial curve].
In the case of `O=C(NCCc1ccccc1)c1ccc(Cl)nc1`, the AC50 under setting [1] is 0.231 µM [rising, partial curve, poor fit].
Take `Cc1ccc(CN(Cc2ccco2)C(=S)NCC(=O)O)cc1`: the AC50 under setting [1] was 29.1 µM [rising, partial curve, poor fit].
On the same count and under the same terms, with `COc1ccc(OCC(=O)Nc2c3c(nn2-c2ccccc2)CS(=O)(=O)C3)cc1` the figure was 11.2 µM [rising, partial curve, poor fit]; with `COc1cc(OC)cc(C(=O)NC2=NCCS2)c1`, 0.0231 µM [falling, full curve, poor fit]; with `Cc1ccc(C2=NC(=O)/C(=C/c3cc(O)c(O)c(Br)c3)S2)cc1`, 17.8 µM [rising, single point].
As to `CCCc1oc2c(c(=O)c1CC)C(=O)CC(C)(C)C2`, under setting [1], the AC50 was 20.6 µM [rising, single point].
The same measure, in the same setting: the result for `Nc1c(S(=O)(=O)c2cccs2)c2nc3ccccc3nc2n1CCc1ccccc1` reads 10 µM [falling, partial curve]; that for `COc1ccc(C)c2sc(NC(=O)c3cccc(N4C(=O)CCC4=O)c3)nc12`, 0.562 µM [falling, full curve, poor fit]; that for `CCN(CC)c1ccc(CNc2ccc3c(c2)ncn3C(C)(C)C)cc1`, 35.5 µM [rising, partial curve, poor fit].
Still for that read-out and setting: the result for `COC(=O)c1cccc(Nc2ccc([N+](=O)[O-])cn2)c1` reads 20 µM [rising, single point].
Still for that read-out and setting: with `CCn1c2ccccc2c2cc(NC(=O)CSc3nnc(-c4ccc(OC)cc4)n3N)ccc21` the figure was 12.6 µM [rising, partial curve, poor fit]; with `CCCNC(=O)NC(=O)COC(=O)/C=C/c1cc(Br)ccc1F`, 1.12 µM [falling, partial curve, poor fit].
Regarding `CC(=O)N1C(C(=O)O)CSC1c1ccc(C)cc1` (configuration not stated), the AC50 under setting [1] is 6.51 µM [falling, single point].
On the same count and under the same terms, the result for `COC(=O)C1CCCCN1C(=O)c1cc(COc2cccc3cnccc23)on1` (configuration not stated) reads 20 µM [falling, partial curve, poor fit]; that for `COc1ccc(N2CCN(CC(=O)Nc3sccc3C#N)CC2)cc1`, 20.6 µM [rising, partial curve, poor fit]; that for `Cc1cccc2cc(C#N)c(NCc3ccccc3)nc12`, 35.5 µM [falling, single point].
On to `COc1ccc(Br)c(C(=O)NC2CCCC2)c1`, for which the AC50 under setting [1] was 0.0891 µM [rising, full curve, poor fit].
On the same count and under the same terms, the result for `COc1ccc(CCNCC(O)Cn2c3ccccc3c3ccccc32)cc1OC` (configuration not stated) reads 22.4 µM [falling, single point]; that for `C=CCn1c(N)c(C(=O)OC(C)(C)C)c2nc3ccccc3nc21`, 29.1 µM [falling, single point]; that for `COc1ccccc1Nc1nc(NCCCN(C)C)nc(N)c1[N+](=O)[O-]`, 15.8 µM [falling, single point].
Still for that read-out and setting: the result for `N#CCCN(C(=O)Nc1ccc(Cl)c(Cl)c1)c1ccccc1` reads 10.3 µM [rising, partial curve, poor fit]; that for `Cc1ccccc1-n1c(SCC(=O)c2c(N)n(C)c(=O)n(C)c2=O)nnc1-c1cccnc1`, 0.146 µM [falling, full curve, poor fit]; that for `COc1ccc(N=c2oc3cc(O)ccc3cc2C(=O)Nc2ccccn2)cc1OC`, 4.47 µM [falling, partial curve, poor fit].
`Cc1cc(C(F)(F)F)nc(-n2cc(-c3ccccc3)nn2)n1`: the AC50 under setting [1] was 2.82 µM [falling, partial curve, poor fit].
Still for that read-out and setting: with `Cc1ccc(OCCn2ncc3ccccc3c2=O)c(C)c1` the figure was 3.16 µM [rising, full curve]; with `COc1ccc(Cl)cc1NC(=O)CN(C)C(=O)COc1ccccc1F`, 31.6 µM [falling, single point].
On the same count and under the same terms, the result for `COc1ccc(C(=O)NC(=S)Nc2ccc(CN3CCOCC3)cc2)cc1Cl` reads 10 µM [falling, partial curve].
The same measure, in the same setting: with `Oc1ccccc1CNc1cccc2cccnc12` the figure was 11.2 µM [falling, partial curve, poor fit]; with `CSc1nnc(-c2ccc([N+](=O)[O-])cc2)o1`, 3.55 µM [rising, partial curve, poor fit].
Take `CCCCS(=O)(=O)/C=C\C=C/S(=O)(=O)CCCC`: the concentration at half-maximal activity (AC50) reads like this: under setting [1], 4.11 µM [falling, full curve, poor fit]; under setting [2], 5.8 µM [rising, full curve, poor fit].
As for `O=C(c1ccc(F)cc1)N1C2CCC1CC(O)(c1ccc(F)cc1)C2` (configuration not stated), the AC50 under setting [1] is 35.5 µM [falling, single point].
The same measure, in the same setting: the result for `CCOc1ccc2nc(SCC(=O)Nc3nonc3C)[nH]c2c1` reads 5.01 µM [rising, full curve, poor fit]; that for `NC(=O)COc1c(-c2ccco2)oc2ccccc2c1=O`, 10 µM [falling, partial curve, poor fit]; that for `CC(NCC(=O)Nc1ccccc1C(=O)NC1CC1)c1ccccc1Cl` (configuration not stated), 32.6 µM [rising, single point].
For `CCOC(=O)c1ccc(NC(=O)CSc2ncccn2)cc1`, under setting [1], the AC50 is 0.92 µM [falling, full curve, poor fit].
As for `COc1cc(C(=S)NC2CCCCC2)ccc1O`, the AC50 under setting [1] was 0.0164 µM [rising, full curve, poor fit].
Same read-out and setting: with `Cc1cc(C)n2nc(C(=O)Nc3cccc(S(=O)(=O)N4CCCC4)c3)nc2n1` the figure was 0.631 µM [rising, partial curve, poor fit].
On to `C=C(C)COc1ccc2c(C)c(CC(=O)N3C[C@H]4C[C@@H](C3)c3cccc(=O)n3C4)c(=O)oc2c1`, for which, under setting [1], the AC50 was 1.58 µM [rising, full curve].
The same measure, in the same setting: the result for `Nc1nnc(SCc2ccc(Cl)cc2)s1` reads 20.6 µM [rising, partial curve, poor fit].
For `Cc1ccc(-c2noc(CNc3ccccc3)n2)cc1`, the AC50 under setting [1] was 0.146 µM [rising, full curve].
On the same count and under the same terms, with `C/C(=N\N1CCN(Cc2ccc(Cl)cc2)CC1)c1ccc([N+](=O)[O-])cc1` the figure was 5.62 µM [falling, single point].
Still for that read-out and setting: with `COc1ccccc1NC(=O)CC(=O)c1ccccc1` the figure was 35.5 µM [falling, single point].
Still for that read-out and setting: the result for `Cn1cccc1C(=O)NCC1COc2ccccc2O1` (configuration not stated) reads 25.9 µM [falling, single point]; that for `Cc1ccc(C)c(NC(=O)CSc2nc(=O)n(CCN(C)C)c3c2CCC3)c1`, 3.16 µM [falling, single point].
Take `O=C(CSc1nnc2c(n1)[nH]c1ccccc12)NC1CCCCC1`: the AC50 under setting [1] was 35.5 µM [rising, partial curve, poor fit].
Same read-out and setting: with `COc1ccccc1C1CC(c2cccs2)=Nc2ccccc2S1` (configuration not stated) the figure was 20.6 µM [falling, single point].
In the case of `COc1cccc2sc(N(Cc3cccnc3)C(=O)COc3ccccc3)nc12`, the AC50 under setting [1] is 22.4 µM [falling, partial curve, poor fit].
Still for that read-out and setting: the result for `COC(=O)[C@]1(C)N[C@H](c2ccc(-c3cccc(Cl)c3)c(OC)c2)[C@@H]2C(=O)N(C)C(=O)[C@@H]21` reads 32.6 µM [falling, single point]; that for `CN(C)c1nc2c(c(N)nn2-c2ccc(Cl)cc2)c(=O)o1`, 0.112 µM [falling, full curve, poor fit]; that for `OC(COCc1ccc(Cl)cc1)CN1CCc2ccccc2C1` (configuration not stated), 0.103 µM [rising, full curve].
Still for that read-out and setting: with `COCCSc1ccccc1C(=O)Nc1cc(C)cc(C)c1` the figure was 31.6 µM [rising, single point].
For `CCOC(=O)C1=C(C)NC2=C(C(=O)CCC2)C1c1cccnc1` (configuration not stated), the AC50 under setting [1] is 0.0058 µM [rising, full curve, poor fit].
With `CCc1nnc(NS(=O)(=O)c2ccc(NC(=O)COc3ccc4ccccc4c3)cc2)s1`, the AC50 under setting [1] is 10 µM [falling, partial curve].
The same measure, in the same setting: with `O=C(C1CC1)N1CCN(c2nc3ccccc3s2)CC1` the figure was 2.51 µM [rising, partial curve, poor fit]; with `CSCCC(NC(=O)c1ccccc1)C(=O)N1CC=C(c2ccccc2)CC1` (configuration not stated), 7.08 µM [falling, partial curve].
Same read-out and setting: the result for `O=C(O)CSCC(=O)NCc1c(Cl)cccc1Oc1ccccc1` reads 7.94 µM [rising, partial curve].
Same read-out and setting: the result for `COc1ccc(C(C)=O)c2c1OCCO2` reads 5.62 µM [falling, single point].
Consider `CCN1C(=NCC2CC2)N[C@@H](c2cccc(C(F)(F)F)c2)C(C(=O)OC)=C1C`, for which the concentration at half-maximal activity (AC50) under setting [1] is 17.8 µM [falling, single point].
The same measure, in the same setting: with `CC(NC(=O)CN1C(=O)c2ccccc2C1=O)c1ccccc1` (configuration not stated) the figure was 35.5 µM [rising, partial curve, poor fit]; with `CCC(Oc1ccccc1C)C(=O)Nc1ccc(S(=O)(=O)Nc2cc(C)on2)cc1` (configuration not stated), 35.5 µM [falling, partial curve, poor fit].
With `CCOC(=O)c1c(C=O)c(C)n(Cc2ccccc2)c1C`, the half-maximal activity concentration (AC50) under setting [1] was 18.4 µM [rising, partial curve] and the AC50 under setting [2] is 20.6 µM [falling, partial curve].
